# Inconclusive results, whose numbers are uncertain, are shown with a selection of clear calls. Potencies of inconclusive entries are doubtful fits and often do not repeat. Activity calls are given as the source filed them. Calls follow the shape of the dose curve; as a rule, active = well fitted activation curve with a large enough effect; inconclusive = small, poorly fitted or top-dose-only effect, or another doubt; inactive = no such curve, though single readings can be large or run the other way.
# Target: Rap guanine nucleotide exchange factor 3 (Homo sapiens) (UniProt O95398)
# Test: Counterscreen qHTS for agonist of cAMP-regulated guanine nucleotide exchange factor 3 (EPAC1) (AID 1645889); also: nearly all actives have a fitted effect of over 40% in size
# Details: EPAC1 Rap1B-BODIPY-GDP exchange, fluorescence; series mostly up to 154 µM
# In short: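 Measured: fluorescence of BODIPY-GDP bound to Rap1B, which falls as exchange proceeds. Conditions include 50 uM competing GDP, 5 and 30 min reads, and a later cAMP challenge for antagonist detection.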
# Potency is read from the fitted curve at half-maximal effect.
row,SMILES,Potency
1,COc1ccc2sc(-c3ccc(N(C)C)cc3)c(C#CC(C)(C)O)c2c1,inactive
2,COc1ccc(C2C=C(c3ccc(Br)cc3)Nc3nnnn32)c(OC)c1 (stereo not drawn),"inconclusive: 70.8 µM [activator, partial curve, poor fit]"
3,Cc1ccc(S(=O)(=O)N2[C@@H](c3ccc(Br)cc3)C(C(=O)O)=CC[C@H]2c2ccc(C(C)C)cc2)cc1,"inconclusive: 0.794 µM [activator, full curve, poor fit]"

# Source: PubChem BioAssay (NCATS)
